These are yes or no findings as the source states them, for the method shown. Binding seen in cells or lysates may run through a third protein. Some entries that bind do so weakly or less than the wild type. For some of these results: Tags and fused reporters may be left off the sequences shown.
Experiments:
[1] = target: T1, Mitofusin 2 (human (endogenous in U2OS)) (UniProt O95140); assay: condition: only without CCCP (no mitochondrial depolarization); proximity ligation; Duolink in situ PLA in fixed, permeabilised U2OS cells transfected with PINK1-3HA, without CCCP (DMSO); mouse anti-HA with rabbit anti-Mfn2
T1 sequence: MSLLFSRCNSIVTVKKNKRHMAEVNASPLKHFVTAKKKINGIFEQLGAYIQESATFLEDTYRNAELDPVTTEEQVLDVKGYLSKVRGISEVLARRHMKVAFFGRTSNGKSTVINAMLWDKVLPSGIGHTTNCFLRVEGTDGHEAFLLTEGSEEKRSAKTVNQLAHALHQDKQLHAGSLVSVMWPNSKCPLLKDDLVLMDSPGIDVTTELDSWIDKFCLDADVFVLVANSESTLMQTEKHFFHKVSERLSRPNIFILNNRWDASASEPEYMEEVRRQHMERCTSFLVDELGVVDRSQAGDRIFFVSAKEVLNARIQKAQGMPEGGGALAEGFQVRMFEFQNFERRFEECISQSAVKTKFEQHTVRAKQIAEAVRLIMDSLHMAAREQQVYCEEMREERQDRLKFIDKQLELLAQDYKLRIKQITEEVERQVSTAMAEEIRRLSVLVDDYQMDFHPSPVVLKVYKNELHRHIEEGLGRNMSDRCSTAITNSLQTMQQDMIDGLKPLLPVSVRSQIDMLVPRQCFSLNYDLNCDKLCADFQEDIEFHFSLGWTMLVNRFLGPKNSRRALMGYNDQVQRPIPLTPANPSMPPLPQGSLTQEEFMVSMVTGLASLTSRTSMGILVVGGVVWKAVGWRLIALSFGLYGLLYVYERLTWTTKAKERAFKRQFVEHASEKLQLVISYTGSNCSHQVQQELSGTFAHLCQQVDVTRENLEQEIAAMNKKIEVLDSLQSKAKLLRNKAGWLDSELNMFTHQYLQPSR

By UniProt entry, the sequences of proteins in these tests, tags left out.
UniProt Q8IXI2: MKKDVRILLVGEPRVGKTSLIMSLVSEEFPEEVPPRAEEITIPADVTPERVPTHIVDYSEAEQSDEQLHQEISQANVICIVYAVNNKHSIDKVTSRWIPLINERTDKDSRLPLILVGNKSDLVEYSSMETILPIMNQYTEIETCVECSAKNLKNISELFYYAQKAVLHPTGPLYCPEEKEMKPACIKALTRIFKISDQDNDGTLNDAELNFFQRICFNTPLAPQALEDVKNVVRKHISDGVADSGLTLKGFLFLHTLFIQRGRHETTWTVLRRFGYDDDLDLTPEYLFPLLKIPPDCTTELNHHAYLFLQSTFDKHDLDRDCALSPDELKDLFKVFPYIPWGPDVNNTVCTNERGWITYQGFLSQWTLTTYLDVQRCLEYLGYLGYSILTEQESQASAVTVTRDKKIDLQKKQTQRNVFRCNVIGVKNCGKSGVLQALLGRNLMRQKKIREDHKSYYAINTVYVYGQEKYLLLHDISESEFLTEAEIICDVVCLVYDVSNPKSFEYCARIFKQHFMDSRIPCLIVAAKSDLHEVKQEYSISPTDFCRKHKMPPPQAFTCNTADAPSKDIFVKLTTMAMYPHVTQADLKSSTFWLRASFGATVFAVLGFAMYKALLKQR
UniProt Q9BXM7: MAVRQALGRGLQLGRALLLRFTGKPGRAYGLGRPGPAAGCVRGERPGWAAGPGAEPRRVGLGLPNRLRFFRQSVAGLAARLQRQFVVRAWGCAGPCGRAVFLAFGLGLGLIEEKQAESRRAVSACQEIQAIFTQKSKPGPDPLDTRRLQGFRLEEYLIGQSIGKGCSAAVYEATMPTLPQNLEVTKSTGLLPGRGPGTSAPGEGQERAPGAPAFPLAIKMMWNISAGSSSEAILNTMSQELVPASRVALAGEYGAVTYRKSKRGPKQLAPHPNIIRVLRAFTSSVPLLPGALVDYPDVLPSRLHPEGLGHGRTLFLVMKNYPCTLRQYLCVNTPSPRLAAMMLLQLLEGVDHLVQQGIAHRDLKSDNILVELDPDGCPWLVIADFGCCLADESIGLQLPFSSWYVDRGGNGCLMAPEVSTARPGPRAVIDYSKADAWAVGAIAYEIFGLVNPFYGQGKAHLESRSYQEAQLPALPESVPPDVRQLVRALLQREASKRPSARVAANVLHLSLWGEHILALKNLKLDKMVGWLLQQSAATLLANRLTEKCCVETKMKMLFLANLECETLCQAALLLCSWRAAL

[2] = target: T2, Mitofusin-1 (human (endogenous in U2OS)) (UniProt Q8IWA4); assay: proximity ligation; Duolink in situ PLA in fixed, permeabilised U2OS cells (WT or PINK1 KO) transfected with PINK1-3HA, 10 uM CCCP for 3 h; mouse anti-HA with rabbit anti-Mfn2, anti-Mfn1, anti-Miro1 or anti-VDAC; PLA spots per cell counted within the ER region of interest
T2 sequence: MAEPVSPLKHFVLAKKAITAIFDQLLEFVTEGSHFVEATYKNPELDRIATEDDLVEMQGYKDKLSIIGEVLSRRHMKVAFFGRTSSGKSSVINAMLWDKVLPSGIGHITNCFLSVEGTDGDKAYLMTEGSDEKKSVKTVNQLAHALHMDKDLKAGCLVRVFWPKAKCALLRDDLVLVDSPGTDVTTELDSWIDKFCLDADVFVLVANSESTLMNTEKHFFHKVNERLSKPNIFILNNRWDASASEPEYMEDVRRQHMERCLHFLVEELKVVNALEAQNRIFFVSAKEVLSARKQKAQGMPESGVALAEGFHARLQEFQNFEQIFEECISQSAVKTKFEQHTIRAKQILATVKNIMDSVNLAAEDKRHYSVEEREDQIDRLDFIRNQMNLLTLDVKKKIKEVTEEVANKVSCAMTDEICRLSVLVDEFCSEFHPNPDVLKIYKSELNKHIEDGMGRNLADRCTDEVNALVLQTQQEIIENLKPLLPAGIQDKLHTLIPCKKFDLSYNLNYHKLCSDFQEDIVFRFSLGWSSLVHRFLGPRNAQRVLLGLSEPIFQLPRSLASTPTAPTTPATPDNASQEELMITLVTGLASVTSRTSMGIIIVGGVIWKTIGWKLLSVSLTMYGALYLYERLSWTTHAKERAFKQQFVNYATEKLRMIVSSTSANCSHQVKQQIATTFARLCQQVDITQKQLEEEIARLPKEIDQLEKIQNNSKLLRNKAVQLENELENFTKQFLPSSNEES

[3] = target: Miro1 (human (endogenous in U2OS)) (UniProt Q8IXI2); assay: as above
[4] = target: T1, Mitofusin 2 (human (endogenous in U2OS)); assay: as above

binding [1]: no binding
binding [2]: no binding
binding [3]: no binding
binding [4]: binds
Substance: PINK1(WT)-3HA (from UniProt Q9BXM7 1-581) (enzyme)

Source: article PMC8767196
